Experimental data from article PMC12431657, “Discovery and mechanistic insights of dibenzoylmethane as a broad spectrum inhibitor of coronavirus” (PLOS Pathogens, 2025).
Like-named read-outs stand apart in the source and are kept apart here. The whole screen tested about 3,300 compounds, of which about 60 (2%) showed an effect of 50% or more. This is one part of the list.

Tested on: HCoV-OC43
Design: species or system RD; HTS, protection from HCoV-OC43 induced cell death, luminescent cell viability (CellCounting-Lite 2.0), inhibition rate
Settings: 24 h post infection, 1 h compound pre-incubation, 10 µM, inhibitor

O=CNCC(=O)O [N-Formylglycine]
OC43 Inhibition rate: 0.4%

C[C@@H]1O[C@@H](O[C@H]2[C@H](OC(=O)[C@]34CCC(C)(C)C[C@H]3C3=CC[C@@H]5[C@@]6(C)C[C@H](O)[C@H](O[C@@H]7O[C@H](CO)[C@@H](O)[C@H](O)[C@H]7O)[C@](CO)(C(=O)O)[C@@H]6CC[C@@]5(C)[C@]3(C)C[C@H]4O)OC[C@H](O)[C@@H]2O)[C@H](O)[C@H](O)[C@H]1O[C@@H]1OC[C@@H](O)[C@H](O[C@@H]2OC[C@](O)(CO)[C@H]2O)[C@H]1O [Platyconic acid A]
OC43 Inhibition rate: -1.7%

O=C(O[C@@H]1Cc2c(O)cc(O)cc2O[C@H]1c1ccc(O)c(O)c1)c1cc(O)c(O)c(O)c1 [(-)-Catechin gallate]
OC43 Inhibition rate: 0.2%

NCCS(=O)(=O)O [Taurine]
OC43 Inhibition rate: 0.5%

COc1ccc(C(=O)O[C@H]2[C@H](O[C@@H]3[C@@H](OC(C)=O)[C@H](O[C@H]4C[C@H]5[C@@H]6CC=C7C[C@@H](O)CC[C@]7(C)[C@H]6CC[C@]5(C)[C@@]4(O)[C@H](C)C(=O)CCC(C)C)OC[C@@H]3O)OC[C@@H](O)[C@@H]2O)cc1 [OSW-1]
OC43 Inhibition rate: -4.2%

CC1=C2[C@@H](OC1=O)[C@H](O)[C@]13[C@H]4C[C@@H](C(C)(C)C)[C@]15[C@@H](OC(=O)[C@@H]5O)O[C@@]23C(=O)O4 [Ginkgolide K]
OC43 Inhibition rate: 0.1%

COc1ccc(-c2coc3cc(O[C@@H]4O[C@H](CO)[C@@H](O)[C@H](O)[C@H]4O)c(OC)c(O)c3c2=O)cc1O [Iristectorin A]
OC43 Inhibition rate: 1.8%

COc1ccc(-c2cc(=O)c3c(O)cc(O[C@@H]4O[C@H](CO[C@@H]5O[C@@H](C)[C@H](O)[C@@H](O)[C@H]5O)[C@@H](O)[C@H](O)[C@H]4O)cc3o2)cc1 [Linarin]
OC43 Inhibition rate: 0%

O=C(O)Cn1ccnc1 [Imidazol-1-yl-acetic acid]
OC43 Inhibition rate: -4.2%

CC(=O)c1cc2c(CO)cc(O)cc2oc1=O [Armillarisin A]
OC43 Inhibition rate: -0.4%

CCCCCCCCCCCCCCCCCCCCCCCCC(=O)O [Pentacosanoic acid]
OC43 Inhibition rate: -3.4%

CCCCCCCCOC(=O)c1cc(O)c(O)c(O)c1 [Octyl gallate]
OC43 Inhibition rate: 6.8%

O=C1N[C@@H]2[C@@H](O)[C@@H](O)[C@H](O)[C@@H](CO)N2C1=O [Kifunensine]
OC43 Inhibition rate: -5.2%

O=C(/C=C/c1ccc(O)c(O)c1)O[C@@H](C(=O)O)[C@@H](OC(=O)/C=C/c1ccc(O)c(O)c1)C(=O)O [L-Chicoric Acid]
OC43 Inhibition rate (OC43 Inhibition rate, 24 h): 1.3%
